Measurements taken from US20130165679A1, “ALPHA-GLUCOSIDASE INHIBITOR” (priority 2011, published 2013).
Read-outs that look alike come from different tables or passages of the source. At least one structure is not confirmed: it was looked up by name or label, or the drawing left a doubt.

System: α-glucosidase
Assay type: biochemical
Description: Examples of unsaturated fatty acid used to analyze its enzyme inhibitive activity as a α-glucosidase inhibitor include oleic acid (Ω9), linoleic acid (Ω6), and α-linolenic acid (Ω3).
In the analytical method, p-nitrophenyl-α-D-glucopyranoside was used as a substrate. The absorbance was measured by spectrophotometry to determine the α-glucosidase inhibition activity of samples (Apostolidis E. Lee C M. In vitro potential of Ascophyllum nodosam phenolic antioxidant-mediated alpha-glucosidase and alpha-amylase inhibition. Journal of Food Science 2010, 75:H97-102; Kang W Y, Song Y L, Zhang L. α-Glucosidase inhibitory and antioxidant properties and antidiabetic activity of Hypericum ascyron L. Medicinal Chemistry Research 2011.20:809-816).
To a 1.5 ml eppendorf tube containing 0.05 ml of sample solution (in 5% methanol), 0.1 ml of α-glucosidase solution (2 U/ml; in 100 mM phosphate buffer, pH 6.9) was added. The mixture was incubated in 37° C. water bath for 10 min, and then 0.05 ml of 5 mM p-nitrophenyl-α-D-glucopyranoside (in 100 mM phosphate buffer, pH 6.9) was added and mixed homogeneously. The mixture was incubated in 37° C. water bath for 10 min, and then in boiling water for 5 min to stop the reaction. After the addition of 1 ml of deionized water, the absorbance at 405 nm was measured by spectrophotometer (U-1800, Hitachi. Tokyo, Japan). • 1. Determining the α-glucosidase inhibition activity of oleic acid (as the α-glucosidase inhibitor): • A. Experimental group: enzyme+substrate+unsaturated fat acid (oleic acid) • B. Control: enzyme+substrate+buffer • C. Background: buffer+buffer+unsaturated fatty acid (oleic acid) • Calculation of the rate of inhibition:
Inhibition rate %=[ODControl−(ODExperimental group−ODBackground)]/ODControl×100%

C[C@H]1O[C@H](O[C@H]2[C@H](O)[C@@H](O)[C@@H](O[C@H]3[C@H](O)[C@@H](O)C(O)O[C@@H]3CO)O[C@@H]2CO)[C@H](O)[C@@H](O)[C@@H]1N[C@H]1C=C(CO)[C@@H](O)[C@H](O)[C@H]1O (stereo partly drawn) [acarbose, reference compound]
Inhibition rate (%) (0.5 mg/ml): 13.9 ± 0.19% | Inhibition rate (%) (1.0 mg/ml): 29.4 ± 0.30% | Inhibition rate (%) (2.0 mg/ml): 52.2 ± 0.37%
